Source: PubChem BioAssay AID1688 (National Center for Advancing Translational Sciences (NCATS), 2009)
The whole screen tested about 220,000 compounds, of which about 2,400 (1.1%) were called active. Inconclusive means that the source gave no clear call. Such entries were picked first, then a sample of the others. Calls follow the shape of the dose curve; as a rule, active = well fitted inhibition curve with a large enough effect; inconclusive = small, poorly fitted or top-dose-only effect, or effect the other way; inactive = no such curve, though single readings can be large or run the other way. A potency beside an inconclusive call is a rough fit, not a confirmed value.

Assay: qHTS Multiplex Assay to Identify Dual Action Probes in a Cell Model of Huntington: Aggregate Formation (GFP); also: nearly all actives have a fitted effect of over 60% in size
Settings: PC12 HttQ103-GFP aggregates, Acumen cytometry, 40 h; activity change, negative = inhibition: at 46.1 µM (top of the series) unless noted
In short: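 Aggregate formation scored by laser-scanning cytometer (488 excitation, 500–530 emission) in lysed PC12 cells expressing Q103-GFP after 100 nM tebufenozide induction; library tested in dose series, with ATPLite reagent added in the multiplex.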
% is scaled to controls: 0 for no effect and ±100 for the full control effect; potency is read from the fitted curve at half-maximal effect.

Structure (SMILES) | Potency | activity change, negative = inhibition
O=C1C(NS(=O)(=O)c2ccc(Cl)cc2)=C(N2CCCCC2)C(=O)c2ccccc21 | inconclusive: 25.1 µM [inhibitor, single point] | 
CC(C)NC(=S)N/N=C/c1ccc(C(C)(C)C)cc1 | inconclusive: 12.6 µM [inhibitor, single point] | 
CCCCC1CC1C(=O)Nc1ccc(OC)c(OC)c1 (stereo unspecified) | inconclusive: 0.316 µM [activator, partial curve] | 
Cc1sc2nc(-c3cccs3)nc(N3CCCN(C)CC3)c2c1C | inconclusive: 35.5 µM [inhibitor, single point] | 
O=C(Nc1ccccc1)Nc1cc(OCC(F)(F)F)cc(OCC(F)(F)F)c1 | inconclusive: 2.51 µM [inhibitor, partial curve, poor fit] | 
CC(=O)N1CCN(c2ccccc2NC(=O)c2ccc(-c3cccc([N+](=O)[O-])c3)o2)CC1 |  | inactive: 5.57%
O=[N+]([O-])C1=CC=C2C(=NC3(CCCCC3)N2O)C1=NCCc1ccccc1 |  | inactive: -2.25%
CC(=O)N=Nc1[nH]c(N)c2ccccc12 | inconclusive: 11.2 µM [activator, partial curve] | 
O=C(N/N=C/c1ccc(O)cc1O)c1ccc(CN2C(=O)c3cccc4cccc2c34)cc1 | inconclusive: 1.78 µM [inhibitor, full curve] | 
CC(=O)O/N=C1\C(=O)N(Cc2ccc(C)cc2)c2ccccc21 |  | inactive: -4.69%
CCOCCCNC(=O)C(c1ccccc1)N(Cc1cccs1)C(=O)c1ccccc1O (stereo unspecified) |  | inactive: -1.12%
Cc1cc(C)n2nc(SCc3nnc(SCCCCl)o3)nc2n1 |  | inactive: 5.03%
CC(=O)[C@H]1CC[C@H]2[C@@H]3CCC4=CC(=O)CC[C@]4(C)[C@H]3CC[C@]12C |  | inactive: -21.1%
O=C(c1ccc2c(=O)n(Cc3ccco3)c(=S)[nH]c2c1)N1CCN(Cc2ccccc2)CC1 |  | inactive: -24.9%
O=C1CC(c2cccc(Cl)c2)CC(O)=C1C=Nc1cccc(Cl)c1 (stereo unspecified) | inconclusive: 35.5 µM [inhibitor, single point] | 
COc1ccc(C(=O)NNC(=S)NC(=O)c2cc(-c3ccccc3)nc3ccccc23)cc1 | active: 28.2 µM | 
Cc1cc2c(Nc3ccccc3)ncnc2s1 |  | inactive: -11.7% [at 9.22 µM]
O=C(NC(=S)Nc1ccc(S(=O)(=O)N2CCCCCC2)cc1)c1cccs1 |  | inactive: 9.87%
O=C(COC(=O)c1ccc([N+](=O)[O-])s1)Nc1ccccc1 |  | inactive: -24%
COc1ccc(N2CCN(Cc3cc4c(cc3O)CCC4)CC2)cc1 | inconclusive: 31.6 µM [inhibitor, single point] | 
O=C1c2cccc3cccc(c23)C(=O)N1OS(=O)(=O)c1ccccc1 | inconclusive: 31.6 µM [activator, single point] | 
CN(C)CCNc1ncnc2c1sc1nc(-c3ccccc3)c3c(c12)CCCC3 | inconclusive: 3.55 µM [inhibitor, single point] | 
Cc1ccccc1OCCCSc1nc2ccccc2[nH]1 | inconclusive: 5.62 µM [inhibitor, single point] | 
COC(=O)c1ccc2c(=O)n(CCCCCC(=O)NC(C)C)c(=O)[nH]c2c1 | inconclusive: 0.794 µM [inhibitor, single point] | 

Structure (SMILES) | Potency | activity change, negative = inhibition
CC(C)c1ccc(NC(=S)NCCc2c[nH]c3ccccc23)cc1 | inconclusive: 15.8 µM [inhibitor, single point] | 
CCc1cccc(NC(=O)NC(=O)Cn2nnc(C(=O)OC)c2C(=O)OC)c1 |  | inactive: -4.39%
COc1ccc(NC(C)=O)cc1NC(=O)CN1CCN(C(=O)c2ccco2)CC1 |  | inactive: 0.778%
COc1ccc(CCN(C)C(=O)CSc2nnnn2C)cc1OC | inconclusive: 35.5 µM [activator, partial curve] | 
N#Cc1c(N)c(C#N)c(-c2ccc(O)cc2)c2c1CCCC2 | inconclusive: 20 µM [inhibitor, single point] | 
CCN(CC)CCN(Cc1cc2cc(C)ccc2[nH]c1=O)C(=O)Nc1ccccc1OC | inconclusive: 0.708 µM [activator, single point] | 
CCOC(=O)c1ccc(NC(=S)NC(=O)COc2ccccc2)cc1 | inconclusive: 22.4 µM [activator, partial curve] | 
Cc1cc(C)nc(N(C#N)Cc2cccc3ccccc23)n1 | inconclusive: 11.2 µM [inhibitor, single point] | 
Fc1ccc(N=c2ssnc2Cl)c(F)c1 | inconclusive: 35.5 µM [inhibitor, single point] | 
CCC/C=C(\CCC)C(NS(=O)(=O)c1ccc(C(F)(F)F)cc1)c1ccccc1 (stereo unspecified) | inconclusive: 35.5 µM [inhibitor, single point] | 
COCCN=c1scc(-c2ccccc2)n1/N=C/c1c[nH]c2ccccc12 | inconclusive: 1.78 µM [activator, full curve] | 
CC(=O)N1CCC(C(=O)Nc2cc(C)cc(C)c2)CC1 |  | inactive: 4.48% [at 9.22 µM]
Cc1cc2ccccc2nc1SCC(=O)Nc1nc(-c2ccccc2)cs1 |  | inactive: -2.14%
Cc1cccc(C(=O)Nc2sc(C)c(-c3ccccc3)c2C#N)c1 | active: 22.4 µM | 
O=C(COc1ccc([N+](=O)[O-])cc1)N1CCN(c2nnc(-c3ccccc3)c3ccccc23)CC1 | inconclusive: 0.891 µM [inhibitor, full curve, poor fit] | 
CCN1CCN(C(=O)CN(C)S(=O)(=O)c2ccc(OC)cc2)CC1 | inconclusive: 10 µM [inhibitor, partial curve, poor fit] | 
O=C(Cc1ccccc1)N1CCC(c2ccccc2)C1 (stereo unspecified) |  | inactive: -1.79% [at 9.22 µM]
CCn1c(=NC(=O)CN2C(=O)CCC2=O)sc2c(C)cc(C)cc21 |  | inactive: -10.6%
CCOC(=O)/C(C#N)=C1/C=C(C)NC(c2ccccc2O)=N1 | active: 11.2 µM | 
COc1cccc(CN2CCN(C(=O)Nc3ccc([N+](=O)[O-])cc3)CC2)c1 | inconclusive: 12.6 µM [inhibitor, partial curve, poor fit] | 
Cc1cccc(-c2nnc(SCC#N)n2Cc2ccccc2)c1 | inconclusive: 3.16 µM [activator, partial curve] | 
Cc1ccc(C(=O)N(c2ccccc2)C2CC(C)N(C(=O)c3ccco3)c3ccccc32)cc1 (stereo unspecified) | inconclusive: 22.4 µM [inhibitor, single point] | 
CCn1cc([N+](=O)[O-])c(C(=O)N2N=C(c3ccc4ccccc4c3)CC2c2cc(Br)ccc2O)n1 (stereo unspecified) | inconclusive: 25.1 µM [inhibitor, single point] | 
CCC(C)NCCOc1cc(C)cc(C)c1C (stereo unspecified) | inconclusive: 0.631 µM [inhibitor, full curve] | 

Structure (SMILES) | Potency | activity change, negative = inhibition
COc1cc(/C=N/N2C(=O)C3C4C=CC(CC4)C3C2=O)ccc1O (stereo unspecified) |  | inactive: -12.4%
O=C(/C=C/c1ccc(Cl)c([N+](=O)[O-])c1)Nc1ccc(NC(=O)c2ccco2)cc1 | inconclusive: 31.6 µM [activator, single point] | 
COc1ccc(NC(C)C(=O)N/N=C/c2ccc([N+](=O)[O-])s2)cc1 (stereo unspecified) | inconclusive: 17.8 µM [inhibitor, single point] | 
COC(=O)c1sc2nc(C)c([N+](=O)[O-])c(C)c2c1N | inconclusive: 6.31 µM [inhibitor, partial curve] | 
CC1CC2(CC(C)(C(=O)CSc3n[nH]c(-c4ccccc4Cl)n3)OC2=O)C(=O)O1 (stereo unspecified) |  | inactive: 15.6%
Cc1ccc(-n2c(C)cc(/C=C3/C(=N)N4C(c5ccccc5)=CSC4=NC3=O)c2C)cc1 | inconclusive: 35.5 µM [inhibitor, single point] | 
COn1c(C)c(C(C)=O)c2c3no[n+]([O-])c3ccc21 |  | inactive: -24.7%
O=C(Nc1ccc(N2CCOCC2)c(Cl)c1)c1ccc(Br)o1 | inconclusive: 15.8 µM [inhibitor, single point] | 
CC1=C(C(=O)OC(C)C)C(c2cccs2)n2ncnc2N1 (stereo unspecified) | inconclusive: 12.6 µM [inhibitor, single point] | 
CN(C)/C=C/C(=O)c1ccncc1 | inconclusive: 6.31 µM [activator, full curve] | 
Cc1[nH]c2ccccc2c1C(=O)COC(=O)c1ccc([N+](=O)[O-])s1 |  | inactive: -7.2%
c1ccc(Nc2c(-c3ccco3)nc3ccccn23)cc1 | inconclusive: 7.94 µM [activator, partial curve, poor fit] | 
Cn1c(Sc2ccc(Br)cc2)c(C=O)c2ccccc21 | active: 10 µM | 
CC(=O)Nc1ccc(Nc2ccc3nonc3c2[N+](=O)[O-])cc1 |  | inactive: 7.71%
CC1CCCN(c2ccc(C(=O)NCc3ccccc3)cn2)C1 (stereo unspecified) |  | inactive: -12.9%
O=C(Cn1[nH]c(=O)c2ccccc2c1=O)NC1CCCCCC1 |  | inactive: -1.11%
O=C(N/N=C/c1ccccn1)c1cc(-c2ccc3ccccc3c2)n[nH]1 | inconclusive: 35.5 µM [inhibitor, single point] | 
CC(C)(C)c1ccc(S(=O)(=O)N2CCN(c3ncccn3)CC2)cc1 |  | inactive: 2.98%
Cc1cccc(N2CCN(C(=O)c3ccc(N4CCCC4=O)cc3)CC2)c1C | inconclusive: 35.5 µM [inhibitor, single point] | 
CN1CCc2cccc3c2[C@@H]1Cc1ccc(O)c(O)c1-3 | inconclusive: 35.5 µM [activator, single point] | 
CN(C)CCOC(c1ccccc1)c1ccccc1 | inconclusive: 35.5 µM [inhibitor, single point] | 
C[C@H]1C[C@@H]2[C@@H]([C@@H](O)C[C@@]3(C)[C@H]2CC[C@]3(O)C(=O)CO)[C@@]2(C)C=CC(=O)C=C12 |  | inactive: 1.07% [at 20.6 µM]
Cc1nc(-c2cnn(-c3ccccc3)c2)c2cc(C)oc2n1 | inconclusive: 3.98 µM [inhibitor, single point] | 

3 entries drawn at random from the list so far:
Structure (SMILES) | Potency | activity change, negative = inhibition
Cc1[nH]c2ccccc2c1C(=O)COC(=O)c1ccc([N+](=O)[O-])s1 |  | inactive: -7.2%
COn1c(C)c(C(C)=O)c2c3no[n+]([O-])c3ccc21 |  | inactive: -24.7%
O=C(N/N=C/c1ccccn1)c1cc(-c2ccc3ccccc3c2)n[nH]1 | inconclusive: 35.5 µM [inhibitor, single point] | 
